Experimental findings from US20240109852A1, “Ferroptosis-HDAC Inhibitor Hybrid Anticancer Agents” (The University of Toledo, priority 2022, published 2024) are described below.

This experiment has as its system NCI-H522 human lung cancer cells. Put plainly: Cell viability assay (methylene blue staining), NCI-H522. It is filed as cell-based. The conditions noted are these: 72 h, read-out: IC50 ± SD (n = 3) on NCI-H522 cell line, three days after treatment.

Regarding `O=C(CCCCCCC(=O)Nc1ccccc1)NO` [SAHA], the IC50 (usually the midpoint of a concentration-inhibition curve) came to 1460 ± 100 nM.
